Reference: PubChem BioAssay AID1259405 (NCATS, 2018)

- Screen: 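Knock-downs that lift recombinant protein yield in hamster ovary cells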 (primary screen)
- Cell system: Chinese hamster CHO-K1 ovary cells with stable secreted eGFP expression
- Reagent: single siRNA against mouse genes, 0.8 pmol siRNA per well (2 µl of 400 nM stock)
- Duration: 3 days
- Measurement: 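Per-well intracellular GFP measured by laser scanning cytometry, plus viability from ATP luminescence, each relative to plate median of non-targeting control wells, in %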
- Reading the numbers: GFP, % of control: higher = more GFP per well, higher productivity; viability (ATP), % of control: higher = more viable cells (more ATP)
- Rule for the call: 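Called active when intracellular GFP, relative to negative control, is at or above 120%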
In all, the deposit lists about 50,000 reagents; below is a random part of them. About 4,000 of all reagents (8%) count as active. 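Mouse siRNA library applied to hamster cells; one well for each siRNA.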 The numbers tell different reagents against one gene apart. No sequences are given here.

| target | reagent | GFP, % of control | viability (ATP), % of control | outcome |
| --- | --- | --- | --- | --- |
| Srek1 (splicing regulatory glutamine/lysine-rich protein 1) | 1 | 43.5 | 67.6 | inactive |
| Srek1 (splicing regulatory glutamine/lysine-rich protein 1) | 2 | 61.4 | 78.9 | inactive |
| Srek1 (splicing regulatory glutamine/lysine-rich protein 1) | 3 | 43.4 | 44.7 | inactive |
| Tnxb (tenascin XB) | 1 | 140 | 63.5 | active |
| Tnxb (tenascin XB) | 2 | 92.3 | 88.2 | inactive |
| Tchp (trichoplein, keratin filament binding) | 1 | 89.6 | 64.1 | inactive |
| Tchp (trichoplein, keratin filament binding) | 2 | 69 | 81.6 | inactive |
| Tchp (trichoplein, keratin filament binding) | 3 | 101 | 113 | inactive |
| Cyba (cytochrome b-245, alpha polypeptide) | 1 | 79.7 | 77.5 | inactive |
| Cyba (cytochrome b-245, alpha polypeptide) | 2 | 46.6 | 38.9 | inactive |
| Cyba (cytochrome b-245, alpha polypeptide) | 3 | 83 | 91.5 | inactive |
| Dvl3 (dishevelled segment polarity protein 3) | 1 | 85.2 | 80.7 | inactive |
| Dvl3 (dishevelled segment polarity protein 3) | 2 | 63.8 | 65.9 | inactive |
| Ass1 (argininosuccinate synthetase 1) | 1 | 79.2 | 67.6 | inactive |
| Ass1 (argininosuccinate synthetase 1) | 2 | 41.6 | 47 | inactive |
| Ass1 (argininosuccinate synthetase 1) | 3 | 49.8 | 57.7 | inactive |
| Ncoa2 (nuclear receptor coactivator 2) | 1 | 83.8 | 79.6 | inactive |
| Ncoa2 (nuclear receptor coactivator 2) | 2 | 153 | 84.4 | active |
| Gabarapl2 (GABA type A receptor associated protein like 2) | 1 | 115 | 100 | inactive |
| Gabarapl2 (GABA type A receptor associated protein like 2) | 2 | 78.1 | 97.1 | inactive |
| Mettl28 (methyltransferase like 28) | 1 | 51.6 | 27 | inactive |
| Mettl28 (methyltransferase like 28) | 2 | 61.8 | 54 | inactive |
| Mettl28 (methyltransferase like 28) | 3 | 80 | 83.8 | inactive |
| Brsk2 (BR serine/threonine kinase 2) | 1 | 140 | 79.6 | active |
| Hcls1 (hematopoietic cell specific Lyn substrate 1) | 1 | 73.4 | 77.3 | inactive |
| Hcls1 (hematopoietic cell specific Lyn substrate 1) | 2 | 61.2 | 73.8 | inactive |
| Tmprss15 (transmembrane protease, serine 15) | 1 | 98 | 85.9 | inactive |
| Tmprss15 (transmembrane protease, serine 15) | 2 | 75.2 | 41.6 | inactive |
| Tmprss15 (transmembrane protease, serine 15) | 3 | 84.6 | 59.2 | inactive |
| Pak4 (p21 (RAC1) activated kinase 4) | 1 | 130 | 73.2 | active |
| Pak4 (p21 (RAC1) activated kinase 4) | 2 | 87.9 | 75.2 | inactive |
| Pak4 (p21 (RAC1) activated kinase 4) | 3 | 83.9 | 99.7 | inactive |
| Fbxl15 (F-box and leucine-rich repeat protein 15) | 1 | 78.3 | 65.6 | inactive |
| Fbxl15 (F-box and leucine-rich repeat protein 15) | 2 | 25.6 | 45.5 | inactive |
| Fbxl15 (F-box and leucine-rich repeat protein 15) | 3 | 48.7 | 42 | inactive |
| Uqcrb (ubiquinol-cytochrome c reductase binding protein) | 1 | 19 | 20.8 | inactive |
| Uqcrb (ubiquinol-cytochrome c reductase binding protein) | 2 | 87.8 | 91.3 | inactive |
| Uqcrb (ubiquinol-cytochrome c reductase binding protein) | 3 | 84 | 69.7 | inactive |
| Slc25a46 | 1 | 61.1 | 93.1 | inactive |
| Slc25a46 | 2 | 54.2 | 101 | inactive |
| Slc25a46 | 3 | 70.5 | 40.7 | inactive |
| Ammecr1 (AMMECR nuclear protein 1) | 1 | 75.9 | 51.9 | inactive |
| Ammecr1 (AMMECR nuclear protein 1) | 2 | 50.3 | 51.4 | inactive |
| Ammecr1 (AMMECR nuclear protein 1) | 3 | 92.3 | 91.9 | inactive |
| Smcp (sperm mitochondria-associated cysteine-rich protein) | 1 | 99 | 78.6 | inactive |
| Smcp (sperm mitochondria-associated cysteine-rich protein) | 2 | 62.2 | 90.7 | inactive |
| Smcp (sperm mitochondria-associated cysteine-rich protein) | 3 | 117 | 71.2 | inactive |
| Jkamp (JNK1/MAPK8-associated membrane protein) | 1 | 77.5 | 72.2 | inactive |
| Jkamp (JNK1/MAPK8-associated membrane protein) | 2 | 89.7 | 93.6 | inactive |
| Jkamp (JNK1/MAPK8-associated membrane protein) | 3 | 88.2 | 58.4 | inactive |
| Pecam1 (platelet/endothelial cell adhesion molecule 1) | 1 | 55.1 | 74 | inactive |
| Pecam1 (platelet/endothelial cell adhesion molecule 1) | 2 | 102 | 87.5 | inactive |
| Etnk2 (ethanolamine kinase 2) | 1 | 80.7 | 68.7 | inactive |
| Acox3 (acyl-Coenzyme A oxidase 3, pristanoyl) | 1 | 115 | 116 | inactive |
| Acox3 (acyl-Coenzyme A oxidase 3, pristanoyl) | 2 | 84.6 | 68.3 | inactive |
| Acox3 (acyl-Coenzyme A oxidase 3, pristanoyl) | 3 | 54 | 76.4 | inactive |
| Cdt1 (chromatin licensing and DNA replication factor 1) | 1 | 82.9 | 41.7 | inactive |
| Cdt1 (chromatin licensing and DNA replication factor 1) | 2 | 42.3 | 53.3 | inactive |
| Cdt1 (chromatin licensing and DNA replication factor 1) | 3 | 93.8 | 114 | inactive |
| 4933409K07Rik (RIKEN cDNA 4933409K07 gene) | 1 | 61.9 | 60.1 | inactive |
| 4933409K07Rik (RIKEN cDNA 4933409K07 gene) | 2 | 88.9 | 93.9 | inactive |
| 4933409K07Rik (RIKEN cDNA 4933409K07 gene) | 3 | 123 | 117 | active |
| Cd200 (CD200 molecule) | 1 | 35.9 | 22.8 | inactive |
| Cd200 (CD200 molecule) | 2 | 61 | 79.2 | inactive |
| Cd200 (CD200 molecule) | 3 | 68.9 | 86.2 | inactive |
| Mpl (Mpl proto-oncogene, thrombopoietin receptor) | 1 | 91.8 | 94.7 | inactive |
| Mpl (Mpl proto-oncogene, thrombopoietin receptor) | 2 | 60.8 | 63.8 | inactive |
| Mpl (Mpl proto-oncogene, thrombopoietin receptor) | 3 | 69.2 | 75.2 | inactive |
| Stimate (STIM activating enhancer) | 1 | 64 | 69 | inactive |
| Stimate (STIM activating enhancer) | 2 | 62.3 | 73.8 | inactive |
| Stimate (STIM activating enhancer) | 3 | 61.1 | 45.5 | inactive |
| Gca (grancalcin) | 1 | 54.1 | 82.2 | inactive |
| Gca (grancalcin) | 2 | 81 | 72.8 | inactive |
| Igf2bp3 (insulin-like growth factor 2 mRNA binding protein 3) | 1 | 110 | 80.3 | inactive |
| Igf2bp3 (insulin-like growth factor 2 mRNA binding protein 3) | 2 | 123 | 94.3 | active |
| Igf2bp3 (insulin-like growth factor 2 mRNA binding protein 3) | 3 | 136 | 126 | active |
| Dlgap3 (DLG associated protein 3) | 1 | 55.5 | 70.9 | inactive |
| Dlgap3 (DLG associated protein 3) | 2 | 51.3 | 64.3 | inactive |
| Dlgap3 (DLG associated protein 3) | 3 | 58.3 | 73.1 | inactive |
| Ehd2 (EH-domain containing 2) | 1 | 131 | 125 | active |
| Ehd2 (EH-domain containing 2) | 2 | 57.2 | 69.4 | inactive |
| Ehd2 (EH-domain containing 2) | 3 | 84.5 | 94.3 | inactive |
| Ppfibp1 (PTPRF interacting protein, binding protein 1 (liprin beta 1)) | 1 | 82.1 | 79.5 | inactive |
| Ppfibp1 (PTPRF interacting protein, binding protein 1 (liprin beta 1)) | 2 | 64.5 | 68.9 | inactive |
| Ppfibp1 (PTPRF interacting protein, binding protein 1 (liprin beta 1)) | 3 | 81.9 | 103 | inactive |
| Siral2 (SIR2 antiphage like 2) | 1 | 63.7 | 52.3 | inactive |
| Siral2 (SIR2 antiphage like 2) | 2 | 21.9 | 40.9 | inactive |
| Siral2 (SIR2 antiphage like 2) | 3 | 80.1 | 97.8 | inactive |
| Rcc1l (reculator of chromosome condensation 1 like) | 1 | 68.1 | 106 | inactive |
| Rcc1l (reculator of chromosome condensation 1 like) | 2 | 66.3 | 83.7 | inactive |
| Rcc1l (reculator of chromosome condensation 1 like) | 3 | 55.3 | 51.9 | inactive |
| Ttc6 (tetratricopeptide repeat domain 6) | 1 | 23.2 | 17.2 | inactive |
| Ttc6 (tetratricopeptide repeat domain 6) | 2 | 99.3 | 73 | inactive |
| Ttc6 (tetratricopeptide repeat domain 6) | 3 | 100 | 104 | inactive |
| Kif2c (kinesin family member 2C) | 1 | 74.1 | 77.5 | inactive |
| Kif2c (kinesin family member 2C) | 2 | 72.1 | 72 | inactive |
| Usp9x (ubiquitin specific peptidase 9, X chromosome) | 1 | 76.6 | 96.7 | inactive |
| Usp9x (ubiquitin specific peptidase 9, X chromosome) | 2 | 54.5 | 54.8 | inactive |
| Usp9x (ubiquitin specific peptidase 9, X chromosome) | 3 | 69.4 | 64.4 | inactive |
| Trappc11 (trafficking protein particle complex 11) | 1 | 44.1 | 81.3 | inactive |
| Trappc11 (trafficking protein particle complex 11) | 2 | 84.4 | 71.6 | inactive |
| Trappc11 (trafficking protein particle complex 11) | 3 | 78.3 | 91.4 | inactive |
| Ciz1 (CDKN1A interacting zinc finger protein 1) | 1 | 83.7 | 99.8 | inactive |
| Ciz1 (CDKN1A interacting zinc finger protein 1) | 2 | 82.2 | 67 | inactive |
| Ciz1 (CDKN1A interacting zinc finger protein 1) | 3 | 97.7 | 117 | inactive |
| Ift122 (intraflagellar transport 122) | 1 | 55.5 | 57.9 | inactive |
| Ift122 (intraflagellar transport 122) | 2 | 69.7 | 62.5 | inactive |
| Ift122 (intraflagellar transport 122) | 3 | 89.5 | 92.3 | inactive |
